In PubChem BioAssay AID504444 (National Center for Advancing Translational Sciences (NCATS), 2011):
Among all 360,000 compounds or so, about 7,500 (2.1%) were called active. The inconclusive results got no clear call from the source; some entries with a clear call stand among them for comparison. Calls follow the shape of the dose curve; as a rule, active = well fitted inhibition curve with a large enough effect; inconclusive = small, poorly fitted or top-dose-only effect, or effect the other way; inactive = flat fitted curve, though single readings scatter. Where the call is inconclusive, the potency comes from a doubtful curve fit.

Test: Nrf2 qHTS screen for inhibitors; also: nearly all actives have a fitted effect of over 60% in size
Settings: A549 ARE-Fluc reporter, luciferase luminescence, 18-24 h; activity change, negative = inhibition: at 46 µM (top of the series)
Outline: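 Two sequential reads on A549 ARE_Fluc cells exposed to compound for 18-24 h: a CellTiter-Fluor fluorescence read for viability, then a luciferase luminescence read for Nrf2/ARE activity.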
% is scaled to controls: 0 for no effect and ±100 for the full control effect; potency is read from the fitted curve at half-maximal effect.

Structure (SMILES) | Potency | activity change, negative = inhibition
CCOc1ccc(C(=O)Nc2ccc(NC(=O)c3ccco3)c(Cl)c2)cc1Br | inconclusive: 16.4 µM [falling, single point] | 
COc1cccc(-c2nnn(C/C(N)=N/O)n2)c1 | inconclusive: 23.1 µM [activator, partial curve] | 
Cc1nn(-c2ccccc2)c(Cl)c1/C=N/O |  | inactive: 1.78%
CCOC(=O)C(=CNc1ncccc1C)C(=O)OCC | inconclusive: 14.6 µM [falling, partial curve, poor fit] | 
Cc1ccc(COc2ccc3c(c2)OCO3)cc1 | inconclusive: 11.6 µM [activator, partial curve] | 
COc1ccc(-c2csc(NC(=O)C3CCN(C(=O)c4ccc(F)cc4)CC3)n2)cc1OC | inconclusive: 20.6 µM [falling, single point] | 
CC(=O)c1ccc(N2CCN(S(=O)(=O)c3ccc4c(c3)C(C)(C)C(=O)N4)CC2)cc1 | inconclusive: 5.17 µM [falling, single point] | 
Cc1cccc(C)c1OCc1cc(C(=O)NCC2CCCCC2)no1 |  | inactive: 10.4%
COc1ccccc1NC(=O)N1CCN(c2ccc(F)cc2)CC1 | inconclusive: 0.651 µM [falling, full curve, poor fit] | 
CCCn1c2ccccc2c2cnn(CC(=O)N(CCCOC)Cc3ccco3)c(=O)c21 | inconclusive: 1.64 µM [falling, partial curve, poor fit] | 
Clc1ccc(-c2cc(C3CCNCC3)[nH]n2)cc1 |  | inactive: 3.09%
Cc1ccc2c(c1C)NC(=O)C21N2CCCC2C(C(=O)c2ccc3ccccc3c2)C12C(=O)Nc1ccccc12 (stereo not drawn) | inconclusive: 16.4 µM [falling, single point] | 
S=C(NNc1nc(Nc2ccccc2)nc(N2CCCCC2)n1)NC1CCCCC1 | inconclusive: 29.1 µM [falling, single point] | 
COc1cc(S(=O)(=O)Nc2ccc3cn[nH]c3c2)ccc1Cl | inconclusive: 0.58 µM [falling, full curve, poor fit] | 
O=C(Nc1ccc(N2CCOCC2)cc1)c1ccc(Br)o1 | inconclusive: 4.11 µM [activator, full curve, poor fit] | 
Cc1ccc(C)c(NC(=O)CSc2nnc(CCCCCNC(=O)OC(C)(C)C)o2)c1 | inconclusive: 29.1 µM [falling, single point] | 
COC(=O)c1ccc(COc2ccc(C(C)(C)C)cc2)o1 | inconclusive: 1.46 µM [activator, full curve] | 
COc1cc(SC)ccc1C(=O)Nc1cccc(C)n1 | inconclusive: 5.17 µM [activator, partial curve, poor fit] | 

Full records, looked up by structure:
`Cc1ccc(COc2ccc3c(c2)OCO3)cc1` as listed: Potency: inconclusive: 11.6 µM [activator, partial curve]
`Cc1ccc(C)c(NC(=O)CSc2nnc(CCCCCNC(=O)OC(C)(C)C)o2)c1` as listed: Potency: inconclusive: 29.1 µM [falling, single point]
